# Experimental data taken from PubChem BioAssay AID624156 (Broad Institute, 2012).
# Hit rate of the full screen: of about 46,000 compounds, about 900 (2%) were called active. Inconclusive means that the source gave no clear call. Such entries were picked first, then a sample of the others. Rule as the data show it: active = ROS induction above about 79% (passing the limit was not always enough); inconclusive = no clear call, values can overlap the other calls.
# Test: ROS inducers in U2OS cancer cells, primary screen, cell-based, H2DCF-DA fluorescence (AID 624156);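 also: 0% = DMSO vehicle median and 100% = reference compound median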
# Details: at 10 µM, stronger effect = higher value
row,Compound,ROS induction (% of piperlongumine)
1,C[C@@H]1CCCCO[C@@H](CN(C)S(C)(=O)=O)[C@@H](C)CN([C@H](C)CO)C(=O)c2cc(NS(C)(=O)=O)ccc2O1,inconclusive: 83.8%
2,COc1ccccc1CCNC(=O)c1cnn2c(C(F)F)cc(C)nc12,inconclusive: 77.4%
3,CCN(CC)c1ccc2cc(C(=O)Nc3ccccc3)c(=N)oc2c1,inconclusive: 395%
4,CC(C)NC(=O)N(C)C[C@@H]1Oc2c(NC(=O)Nc3ccc4c(c3)OCO4)cccc2C(=O)N([C@H](C)CO)C[C@@H]1C,inactive: 16.9%
5,CC(C)(C)C(=O)CSc1nc2c(sc(=S)n2CCc2ccccc2)c(=O)n1Cc1ccco1,inconclusive: 78.4%
6,C[C@H](CO)N1C[C@H](C)[C@H](CN(C)Cc2ccc(C(=O)Nc3ccccc3N)cc2)Oc2ccc(NC(=O)Nc3ccc(C(F)(F)F)cc3)cc2CC1=O,inconclusive: 87.2%
7,O=C1N(Cc2ccccc2)Cc2ccccc2[C@H]2OC(c3ccc(OCCCO)cc3)=N[C@@]12CCS(=O)(=O)c1ccccc1,active: 243%
8,O=C(COc1ccc2ccccc2c1Br)NCCC1=CCCCC1,inconclusive: 90%
9,C=C1C(=O)O[C@H]2[C@H]1[C@H](O)CC(=C)[C@@H]1CC(=O)C(C)[C@H]21 (some centres undefined),inconclusive: 77.5%
10,CNc1cc2ncnc(Nc3cccc(Br)c3)c2cc1N,inconclusive: 77.2%
11,Cc1cc2c(CO)cc(SCC(O)C(=O)O)cc2o1 (centres undefined),inconclusive: 231%
12,COc1ccc(S(=O)(=O)N(C)C[C@@H]2OCCCC[C@@H](C)Oc3ccc(NS(=O)(=O)c4ccc(C)cc4)cc3C(=O)N([C@H](C)CO)C[C@@H]2C)cc1,inconclusive: 80.4%
13,CN(C(=O)c1cn(C)c(=O)cc1C(F)(F)F)c1ccc(Cl)c(Cl)c1,inconclusive: 80.2%
14,C[C@H](CO)N1C[C@H](C)[C@@H](CN(C)Cc2ccc(Oc3ccccc3)cc2)Oc2c(NC(=O)C3CCCCC3)cccc2C1=O,inconclusive: 87.9%
15,Cc1cc(C)c(C2=NON3N(C(=O)c4cccs4)c4ccccc4N23)c(C)c1,inconclusive: 128%
16,CCn1c(SCC(=O)Nc2cc(Cl)ccc2Cl)nnc1-c1ccncc1,inactive: -4.95%
17,Cc1cc2nc(SCc3ccccc3C#N)[nH]c2cc1C,active: 127%
18,Cc1cccc(S(=O)(=O)N(C)C[C@H]2OCc3cnnn3CCCC(=O)N([C@@H](C)CO)C[C@@H]2C)c1,inconclusive: 89%
19,CCOC(=O)CSc1nc(Nc2ccc(OC)cc2)c2cnc(N(CC)CC)nc2n1,inconclusive: 93.7%
20,C=CCc1c(C)c(C#N)c2nc3ccccc3n2c1NCCc1ccc(OC)c(OC)c1,active: 133%
21,C[C@@H]1CCCCO[C@H](CN(C)S(C)(=O)=O)[C@@H](C)CN([C@H](C)CO)C(=O)c2cc(NC(=O)c3ccncc3)ccc2O1,inactive: 10.2%
22,C[C@H]1CN([C@@H](C)CO)C(=O)Cc2cc(NS(=O)(=O)c3cccs3)ccc2O[C@H]1CN(C)Cc1ccccc1,inactive: 1.59%

# Quoted at random: three entries already listed
row,Compound,ROS induction (% of piperlongumine)
16,CCn1c(SCC(=O)Nc2cc(Cl)ccc2Cl)nnc1-c1ccncc1,inactive: -4.95%
7,O=C1N(Cc2ccccc2)Cc2ccccc2[C@H]2OC(c3ccc(OCCCO)cc3)=N[C@@]12CCS(=O)(=O)c1ccccc1,active: 243%
22,C[C@H]1CN([C@@H](C)CO)C(=O)Cc2cc(NS(=O)(=O)c3cccs3)ccc2O[C@H]1CN(C)Cc1ccccc1,inactive: 1.59%

# Next part:

row,Compound,ROS induction (% of piperlongumine)
1,O=C(CSc1n[nH]c(-c2ccc(Cl)cc2)n1)c1ccc(Br)cc1,inconclusive: 81.3%
2,COC(=O)C(CC#Cc1ccc2c(c1)[C@]1(C(=O)N2)[C@H](c2ccc(O)cc2)N2[C@H](c3ccccc3)[C@H](c3ccccc3)OC(=O)[C@H]2[C@@H]1C(=O)O)C(=O)OC,inconclusive: 202%
3,Cc1c(/C=C2\SC(c3ccccc3)=NC2=O)c(=O)n(-c2ccccc2)n1C,inconclusive: 123%
4,C[C@H]1CN([C@@H](C)CO)C(=O)Cc2cc(NC(=O)Nc3ccccc3)ccc2O[C@H]1CN(C)S(=O)(=O)c1ccc(Cl)cc1,inactive: 20.2%
5,COc1ccc(-c2cc(C(F)F)n3ncc(C(=O)Nc4cccc(S(=O)(=O)N5CCOCC5)c4)c3n2)cc1,active: 133%
6,CC(C)NC(=O)N(C)C[C@@H]1Oc2c(NC(=O)Nc3ccc(C(F)(F)F)cc3)cccc2C(=O)N([C@H](C)CO)C[C@@H]1C,inconclusive: 77.8%
7,C[C@@H]1CN([C@H](C)CO)C(=O)c2cccc(NS(=O)(=O)c3ccccc3)c2O[C@H]1CN(C)Cc1ccc(-c2ccccc2)cc1,inconclusive: 96.7%
8,Cc1sc2ncnc(SCC(=O)c3cc(Cl)sc3Cl)c2c1C,inconclusive: 75.8%
9,CSc1ccccc1NC(=O)CN(c1cccc([N+](=O)[O-])c1)S(C)(=O)=O,inconclusive: 127%
10,C=C1C(=O)O[C@H]2C3=C(C)C[C@H](OC(C)=O)C[C@]3(C)CC[C@@H]12,active: 210%
11,COc1ccc(OCC(=O)Nc2cccc(-c3nnc4c5ccccc5c(C)nn34)c2)cc1,inconclusive: 83%
12,Cc1ccc(OCC(O)Cn2c(C)nc3ccccc32)cc1 (centres undefined),inactive: 0.842%
13,Cc1c(S(=O)(=O)Nc2ccc(Cl)cc2)sc2ccc(Cl)cc12,inactive: -12.9%
14,COc1ccc2nc(Nc3nc(C)c(CCC(C)C)c(=O)[nH]3)nc(C)c2c1,inconclusive: 96.6%
15,CNC(=O)C(C)n1c2ccccc2c2cn[nH]c(=O)c21 (centres undefined),inactive: -1.55%
16,Cc1noc(C)c1S(=O)(=O)Nc1ccc2c(c1)CC(=O)N([C@H](C)CO)C[C@@H](C)[C@H](CN(C)Cc1ccc(-c3ccccc3)cc1)O2,inconclusive: 75.1%
17,C[C@H](CO)N1C[C@H](C)[C@@H](CN(C)C(=O)Nc2ccc(C(C)(C)C)cc2)OCc2cnnn2CCCC1=O,inactive: -2.36%
18,CC(C)NC(=O)Nc1ccc2c(c1)C(=O)N([C@H](C)CO)C[C@H](C)[C@H](CN(C)Cc1ccc(Cl)c(Cl)c1)OCCCC[C@@H](C)O2,inconclusive: 75.7%
19,O=C(/C=c1\[nH]c(=O)/c(=C/c2cccnc2)s1)c1ccc(Cl)cc1,inconclusive: 85.1%
20,Cc1ccc(S(=O)(=O)N(C)C[C@H]2Oc3ccc(NC(=O)Cc4cn(C)c5ccccc45)cc3CC(=O)N([C@@H](C)CO)C[C@H]2C)cc1,active: 109%
21,Cc1ccccc1S(=O)(=O)N(C)C[C@H]1OCc2cn(nn2)CCCC(=O)N([C@@H](C)CO)C[C@H]1C,inactive: -26.9%
22,COCCOC(=O)N1C(=O)[C@@]2(c3cc(C#CC4(O)CCCCCC4)ccc31)[C@H](c1ccc(O)cc1)N1[C@H](c3ccccc3)[C@H](c3ccccc3)OC(=O)[C@H]1[C@@H]2C(N)=O,inconclusive: 77.2%
